Some entries share one result that the patent states for a list of compounds.
Target: T1, CCR-3 (Homo sapiens, UniProt P51677)
T1 sequence (P51677 1-355): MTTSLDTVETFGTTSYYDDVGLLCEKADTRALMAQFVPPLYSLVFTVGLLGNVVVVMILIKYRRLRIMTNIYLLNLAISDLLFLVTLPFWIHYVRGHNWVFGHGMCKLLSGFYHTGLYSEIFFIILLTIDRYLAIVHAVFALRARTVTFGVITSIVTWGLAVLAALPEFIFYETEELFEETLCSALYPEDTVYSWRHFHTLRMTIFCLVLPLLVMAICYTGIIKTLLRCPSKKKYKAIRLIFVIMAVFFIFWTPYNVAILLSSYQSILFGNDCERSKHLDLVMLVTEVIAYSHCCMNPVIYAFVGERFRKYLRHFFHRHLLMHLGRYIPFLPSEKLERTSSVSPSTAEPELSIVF
Experiment: CCR-3 competition binding SPA ([125I]eotaxin)
Set-up: expressed in transfected cells
Settings: inhibition of [125I]eotaxin binding to membranes of K562 cells stably expressing CCR-3; mean of at least two experiments

CCR-3 Binding Assay (pIC50), greater than 5.0:
COC(=O)c1sc(CNC(=O)NCC2CN(Cc3ccc(Cl)c(Cl)c3)CCO2)nc1C (stereo not drawn) [Example 115, methyl 2-({[({[4-(3,4-dichlorobenzyl)morpholin-2-yl]methyl}amino)carbonyl]amino}methyl)-4-methyl-1,3-thiazole-5-carboxylate]
O=C(NCC1CN(Cc2ccc(Cl)c(Cl)c2)CCO1)Nc1ccc(Br)cc1 (stereo not drawn) [Example 20, N-(4-Bromophenyl)-N′-{[4-(3,4-dichlorobenzyl)morpholin-2-yl]methyl}urea]
O=C(NCCN1CCOCC1)NCC1CN(Cc2ccc(Cl)c(Cl)c2)CCO1 (stereo not drawn) [Example 154, N-{[4-(3,4-dichlorobenzyl)morpholin-2-yl]methyl}-N′-(2-morpholin-4-ylethyl)urea]
O=C(NCC1CN(Cc2ccc(Cl)c(Cl)c2)CCO1)Nc1cccc(Br)c1 (stereo not drawn) [Example 12, N-(3-Bromophenyl)-N′-{[4-(3,4-dichlorobenzyl)morpholin-2-yl]methyl}urea]
CNC(=O)c1cccc(CNC(=O)NC[C@H]2CN(Cc3ccc(Cl)c(Cl)c3)CCO2)c1 [Example 138, 3-({[({[(2S)-4-(3,4-dichlorobenzyl)morpholin-2-yl]methyl}amino)carbonyl]amino}methyl)-N-methylbenzamide]
O=C(NCC1CN(Cc2ccc(Cl)c(Cl)c2)CCO1)NC1CCOCC1 (stereo not drawn) [Example 153, N-{[4-(3,4-dichlorobenzyl)morpholin-2-yl]methyl}-N′-tetrahydro-2H-pyran-4-ylurea]
CC(C)(C)Oc1ccc(CCNC(=O)NCC2CN(Cc3ccc(Cl)c(Cl)c3)CCO2)cc1 (stereo not drawn) [Example 92, N-[2-(4-tert-butoxyphenyl)ethyl]-N′-{[4-(3,4-dichlorobenzyl)morpholin-2-yl]methyl}urea]
COC(=O)c1cccc(NC(=O)NCC2CN(Cc3ccc(Cl)c(Cl)c3)CCO2)c1 (stereo not drawn) [Example 15, Methyl 3-{[({[4-(3,4-dichlorobenzyl)morpholin-2-yl]methyl}amino)carbonyl]amino}benzoate]
O=C(NCC1CN(Cc2ccc(Cl)c(Cl)c2)CCO1)NC1CCCCC1 (stereo not drawn) [Example 7, N-Cyclohexyl-N′-{[4-(3,4-dichlorobenzyl)morpholin-2-yl]methyl}urea]
CCOC(=O)N1CCN(C(=O)NCC2CN(Cc3ccc(Cl)c(Cl)c3)CCO2)CC1 (stereo not drawn) [Example 155, ethyl 4-[({[4-(3,4-dichlorobenzyl)morpholin-2-yl]methyl}amino)carbonyl]piperazine-1-carboxylate]
O=C(NCc1ccccc1Cl)NCC1CN(Cc2ccc(Cl)c(Cl)c2)CCO1 (stereo not drawn) [Example 49, N-(2-Chlorobenzyl)-N′-{[4-(3,4-dichlorobenzyl)morpholin-2-yl]methyl}urea]
O=C(NCC1CN(Cc2ccc(Cl)c(Cl)c2)CCO1)N1CCOCC1 (stereo not drawn) [Example 156, N-{[4-(3,4-dichlorobenzyl)morpholin-2-yl]methyl}morpholine-4-carboxamide]
CC(C)(C)OC(=O)N1CCC(CNC(=O)NCC2CN(Cc3ccc(Cl)c(Cl)c3)CCO2)CC1 (stereo not drawn) [Example 143, tert-butyl 4-({[({[4-(3,4-dichlorobenzyl)morpholin-2-yl]methyl}amino)carbonyl]amino}methyl)piperidine-1-carboxylate]
O=C(NCC1CN(Cc2ccc(Cl)c(Cl)c2)CCO1)N1CCSCC1 (stereo not drawn) [Example 169, N-{[4-(3,4-dichlorobenzyl)morpholin-2-yl]methyl}thiomorpholine-4-carboxamide]
CC(=O)NCCNC(=O)NCC1CN(Cc2ccc(Cl)c(Cl)c2)CCO1 (stereo not drawn) [Example 168, N-(2-{[({[4-(3,4-dichlorobenzyl)morpholin-2-yl]methyl}amino)carbonyl]amino}ethyl)acetamide]
COc1ccc(CNC(=O)NCC2CN(Cc3ccc(Cl)c(Cl)c3)CCO2)cc1OC (stereo not drawn) [Example 65, N-{[4-(3,4-dichlorobenzyl)morpholin-2-yl]methyl}-N′-(3,4-dimethoxybenzyl)urea]
COc1ccc(CNC(=O)NCC2CN(Cc3ccc(Cl)c(Cl)c3)CCO2)c(OC)c1 (stereo not drawn) [Example 90, N-{[4-(3,4-dichlorobenzyl)morpholin-2-yl]methyl}-N′-(2,4-dimethoxybenzyl)urea]
O=C(NCC#CCO)NCC1CN(Cc2ccc(Cl)c(Cl)c2)CCO1 (stereo not drawn) [Example 100, N-{[4-(3,4-dichlorobenzyl)morpholin-2-yl]methyl}-N′-(4-hydroxybut-2-ynyl)urea]
O=C(NCc1ccc(C(=O)NC2CC2)cc1)NC[C@H]1CN(Cc2ccc(Cl)c(Cl)c2)CCO1 [Example 150, N-cyclopropyl-4-({[({[(2S)-4-(3,4-dichlorobenzyl)morpholin-2-yl]methyl}amino)carbonyl]amino}methyl)benzamide]
O=C(NCC1CN(CCOC(=O)c2ccccc2)CCO1)Nc1ccc(Cl)cc1 (stereo not drawn) [Example 39, 2-{2-[({[(4-Chlorophenyl)amino]carbonyl}amino)methyl]morpholin-4-yl}ethyl Benzoate]
Cc1noc(C)c1S(=O)(=O)N1CCC(NC(=O)NCC2CN(Cc3ccc(Cl)c(Cl)c3)CCO2)CC1 (stereo not drawn) [Example 161, N-{[4-(3,4-dichlorobenzyl)morpholin-2-yl]methyl}-N′-{1-[(3,5-dimethylisoxazol-4-yl)sulfonyl]piperidin-4-yl}urea]
O=C(NCc1cccc2[nH]ccc12)NCC1CN(Cc2ccc(Cl)c(Cl)c2)CCO1 (stereo not drawn) [Example 79, N-{[4-(3,4-dichlorobenzyl)morpholin-2-yl]methyl}-N′-(1H-indol-4-ylmethyl)urea]
O=C(NCc1nccs1)NCC1CN(Cc2ccc(Cl)c(Cl)c2)CCO1 (stereo not drawn) [Example 113, N-{[4-(3,4-dichlorobenzyl)morpholin-2-yl]methyl}-N′-(1,3-thiazol-2-ylmethyl)urea]
COc1ccc(CNC(=O)NCC2CN(Cc3ccc(Cl)c(Cl)c3)CCO2)cn1 (stereo not drawn) [Example 110, N-{[4-(3,4-dichlorobenzyl)morpholin-2-yl]methyl}-N′-[(6-methoxypyridin-3-yl)methyl]urea]
CC1CCN(C(=O)NCC2CN(Cc3ccc(Cl)c(Cl)c3)CCO2)CC1 (stereo not drawn) [Example 158, N-{[4-(3,4-dichlorobenzyl)morpholin-2-yl]methyl}-4-methylpiperidine-1-carboxamide]
CCS(=O)(=O)CCCNC(=O)NC[C@H]1CN(Cc2ccc(Cl)c(Cl)c2)CCO1 [Example 145, N-{[(2S)-4-(3,4-Dichlorobenzyl)morpholin-2-yl]methyl}N′-[3-(ethylsulfonyl)propyl]urea]
Cc1ccnc(C2CCCN2C(=O)NCC2CN(Cc3ccc(Cl)c(Cl)c3)CCO2)c1 (stereo not drawn) [Example 177, N-{[4-(3,4-dichlorobenzyl)morpholin-2-yl]methyl}-2-(4-methylpyridin-2-yl)pyrrolidine-1-carboxamide]

From US7157457B2, “Compounds useful in the treatment of inflammatory diseases” (Glaxo Group Limited, priority 2000, dated 2007)
